Earlier results as cited in EP0009325A1, “Erythritol cointaining anti-caries compositions” (PFIZER INC., priority 1978, dated 1980).

Conditions: at practical use levels; cited from earlier work

OC[C@@H](O)[C@@H](O)[C@H](O)[C@H](O)CO [mannitol]
sweetness relative to sucrose: 50%

OC[C@@H](O)[C@@H](O)[C@H](O)[C@@H](O)CO [sorbitol]
sweetness relative to sucrose: 50%
